Experimental data: the supplement of paper PMC10849652
Some of the results follow.

Chains of the proteins cited; added tags and fusions are not shown. Lines headed by an entry give the natural chain unless they say otherwise; changes in a name come on top.
UniProt P36406: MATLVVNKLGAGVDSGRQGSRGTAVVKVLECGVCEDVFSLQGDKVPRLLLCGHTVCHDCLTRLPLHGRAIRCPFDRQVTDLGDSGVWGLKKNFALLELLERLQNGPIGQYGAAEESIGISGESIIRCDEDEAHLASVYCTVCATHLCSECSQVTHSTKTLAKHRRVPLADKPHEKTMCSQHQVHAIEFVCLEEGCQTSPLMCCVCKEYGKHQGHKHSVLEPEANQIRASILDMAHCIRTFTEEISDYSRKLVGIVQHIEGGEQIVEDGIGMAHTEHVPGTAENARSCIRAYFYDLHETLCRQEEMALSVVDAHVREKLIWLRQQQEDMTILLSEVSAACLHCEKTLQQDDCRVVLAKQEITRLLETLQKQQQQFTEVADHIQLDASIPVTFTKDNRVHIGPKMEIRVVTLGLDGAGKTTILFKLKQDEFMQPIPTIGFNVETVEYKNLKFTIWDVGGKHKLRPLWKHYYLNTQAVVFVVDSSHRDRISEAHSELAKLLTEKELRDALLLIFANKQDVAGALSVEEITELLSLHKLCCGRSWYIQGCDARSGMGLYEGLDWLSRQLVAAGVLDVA
UniProt Q8TBZ6: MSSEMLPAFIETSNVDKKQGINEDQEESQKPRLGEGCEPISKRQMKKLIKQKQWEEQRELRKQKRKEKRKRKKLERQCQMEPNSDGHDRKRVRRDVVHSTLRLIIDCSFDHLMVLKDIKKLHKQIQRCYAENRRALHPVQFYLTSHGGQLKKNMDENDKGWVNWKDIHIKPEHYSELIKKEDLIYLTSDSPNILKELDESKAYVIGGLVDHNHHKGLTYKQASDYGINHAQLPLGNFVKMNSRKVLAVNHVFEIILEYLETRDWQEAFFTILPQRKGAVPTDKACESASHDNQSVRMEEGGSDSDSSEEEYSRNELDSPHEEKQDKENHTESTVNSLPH
UniProt Q8NCE0: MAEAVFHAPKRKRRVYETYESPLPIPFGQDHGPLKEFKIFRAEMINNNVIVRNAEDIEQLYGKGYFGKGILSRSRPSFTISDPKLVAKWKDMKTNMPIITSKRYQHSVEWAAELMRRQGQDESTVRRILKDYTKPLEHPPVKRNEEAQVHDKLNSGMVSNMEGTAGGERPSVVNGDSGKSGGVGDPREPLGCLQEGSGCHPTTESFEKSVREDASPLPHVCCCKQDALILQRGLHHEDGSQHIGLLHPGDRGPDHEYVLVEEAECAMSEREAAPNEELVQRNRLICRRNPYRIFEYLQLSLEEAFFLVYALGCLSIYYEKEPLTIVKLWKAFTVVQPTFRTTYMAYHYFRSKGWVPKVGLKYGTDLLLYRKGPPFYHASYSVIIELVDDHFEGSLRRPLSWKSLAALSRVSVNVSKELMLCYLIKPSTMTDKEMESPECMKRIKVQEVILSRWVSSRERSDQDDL
UniProt O75674: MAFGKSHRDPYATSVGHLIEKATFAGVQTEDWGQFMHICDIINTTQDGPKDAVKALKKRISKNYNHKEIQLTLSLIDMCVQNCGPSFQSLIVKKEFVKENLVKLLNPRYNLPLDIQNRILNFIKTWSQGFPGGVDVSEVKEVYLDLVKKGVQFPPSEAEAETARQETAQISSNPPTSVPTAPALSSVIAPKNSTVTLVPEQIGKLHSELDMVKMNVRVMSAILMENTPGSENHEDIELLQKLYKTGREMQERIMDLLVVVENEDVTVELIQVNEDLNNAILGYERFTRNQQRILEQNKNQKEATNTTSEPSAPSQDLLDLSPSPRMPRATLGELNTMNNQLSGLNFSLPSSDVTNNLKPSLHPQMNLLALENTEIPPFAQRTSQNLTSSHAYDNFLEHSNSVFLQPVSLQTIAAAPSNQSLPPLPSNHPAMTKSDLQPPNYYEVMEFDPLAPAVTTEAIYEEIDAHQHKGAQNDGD
UniProt Q96GJ1: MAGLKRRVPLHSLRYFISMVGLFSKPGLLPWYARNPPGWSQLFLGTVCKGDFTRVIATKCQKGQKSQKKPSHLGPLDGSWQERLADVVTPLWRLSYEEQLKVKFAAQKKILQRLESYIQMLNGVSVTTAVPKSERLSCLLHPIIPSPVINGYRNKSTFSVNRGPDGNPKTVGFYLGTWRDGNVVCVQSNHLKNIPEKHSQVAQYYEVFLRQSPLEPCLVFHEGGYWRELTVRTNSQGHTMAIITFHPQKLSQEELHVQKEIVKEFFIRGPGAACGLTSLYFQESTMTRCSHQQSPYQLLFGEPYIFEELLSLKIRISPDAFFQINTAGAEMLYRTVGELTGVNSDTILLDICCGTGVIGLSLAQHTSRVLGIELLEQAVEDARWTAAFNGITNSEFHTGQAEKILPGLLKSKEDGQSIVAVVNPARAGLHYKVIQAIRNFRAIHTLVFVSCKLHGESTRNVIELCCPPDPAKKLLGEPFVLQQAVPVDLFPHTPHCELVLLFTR
UniProt Q15642: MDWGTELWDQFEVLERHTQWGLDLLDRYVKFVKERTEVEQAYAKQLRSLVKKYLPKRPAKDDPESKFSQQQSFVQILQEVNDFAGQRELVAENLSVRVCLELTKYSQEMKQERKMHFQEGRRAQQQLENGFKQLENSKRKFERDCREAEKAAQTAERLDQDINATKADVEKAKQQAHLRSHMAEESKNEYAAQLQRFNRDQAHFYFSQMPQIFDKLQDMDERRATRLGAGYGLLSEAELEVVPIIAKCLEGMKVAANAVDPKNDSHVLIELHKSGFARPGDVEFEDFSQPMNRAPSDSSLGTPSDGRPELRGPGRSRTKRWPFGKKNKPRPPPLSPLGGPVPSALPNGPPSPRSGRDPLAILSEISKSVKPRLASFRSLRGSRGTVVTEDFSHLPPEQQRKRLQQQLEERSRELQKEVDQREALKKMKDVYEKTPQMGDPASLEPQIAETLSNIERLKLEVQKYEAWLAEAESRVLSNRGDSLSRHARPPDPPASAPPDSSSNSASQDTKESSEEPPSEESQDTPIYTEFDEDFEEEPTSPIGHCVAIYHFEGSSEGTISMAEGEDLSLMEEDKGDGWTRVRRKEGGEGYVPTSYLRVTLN
UniProt Q9UKE5: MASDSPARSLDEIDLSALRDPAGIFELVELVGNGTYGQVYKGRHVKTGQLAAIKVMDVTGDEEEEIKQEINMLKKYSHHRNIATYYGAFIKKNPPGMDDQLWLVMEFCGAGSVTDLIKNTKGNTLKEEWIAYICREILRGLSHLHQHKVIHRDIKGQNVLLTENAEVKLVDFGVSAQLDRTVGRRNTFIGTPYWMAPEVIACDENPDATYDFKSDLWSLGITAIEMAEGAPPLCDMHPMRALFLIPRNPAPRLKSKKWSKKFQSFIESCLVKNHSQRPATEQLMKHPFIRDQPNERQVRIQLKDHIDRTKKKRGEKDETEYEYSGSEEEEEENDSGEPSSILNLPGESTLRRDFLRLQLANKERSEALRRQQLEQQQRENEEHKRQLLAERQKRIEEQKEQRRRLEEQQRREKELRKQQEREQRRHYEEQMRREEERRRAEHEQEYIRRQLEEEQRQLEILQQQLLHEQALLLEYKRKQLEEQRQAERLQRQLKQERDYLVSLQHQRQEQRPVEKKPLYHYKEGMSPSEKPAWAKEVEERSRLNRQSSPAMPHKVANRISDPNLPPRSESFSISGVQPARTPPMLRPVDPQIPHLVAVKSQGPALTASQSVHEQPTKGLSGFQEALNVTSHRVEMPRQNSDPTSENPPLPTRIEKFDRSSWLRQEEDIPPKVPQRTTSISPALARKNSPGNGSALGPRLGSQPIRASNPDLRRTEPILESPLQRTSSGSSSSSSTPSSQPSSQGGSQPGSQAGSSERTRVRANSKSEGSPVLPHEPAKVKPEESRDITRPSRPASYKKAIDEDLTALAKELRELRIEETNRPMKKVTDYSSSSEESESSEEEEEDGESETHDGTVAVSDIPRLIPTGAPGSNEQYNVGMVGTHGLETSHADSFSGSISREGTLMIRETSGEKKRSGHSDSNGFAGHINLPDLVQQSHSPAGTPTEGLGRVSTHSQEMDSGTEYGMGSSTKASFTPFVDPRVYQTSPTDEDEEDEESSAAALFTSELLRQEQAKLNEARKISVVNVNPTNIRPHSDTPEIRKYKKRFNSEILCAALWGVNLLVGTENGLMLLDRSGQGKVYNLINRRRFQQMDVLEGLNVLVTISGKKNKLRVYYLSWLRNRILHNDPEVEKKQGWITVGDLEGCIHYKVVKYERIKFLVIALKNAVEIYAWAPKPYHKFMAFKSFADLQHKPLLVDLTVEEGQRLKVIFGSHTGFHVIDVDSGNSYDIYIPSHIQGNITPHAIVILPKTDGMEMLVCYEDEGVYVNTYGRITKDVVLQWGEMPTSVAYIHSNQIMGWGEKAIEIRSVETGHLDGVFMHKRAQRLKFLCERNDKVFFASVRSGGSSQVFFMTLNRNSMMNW
UniProt Q7L0Y3: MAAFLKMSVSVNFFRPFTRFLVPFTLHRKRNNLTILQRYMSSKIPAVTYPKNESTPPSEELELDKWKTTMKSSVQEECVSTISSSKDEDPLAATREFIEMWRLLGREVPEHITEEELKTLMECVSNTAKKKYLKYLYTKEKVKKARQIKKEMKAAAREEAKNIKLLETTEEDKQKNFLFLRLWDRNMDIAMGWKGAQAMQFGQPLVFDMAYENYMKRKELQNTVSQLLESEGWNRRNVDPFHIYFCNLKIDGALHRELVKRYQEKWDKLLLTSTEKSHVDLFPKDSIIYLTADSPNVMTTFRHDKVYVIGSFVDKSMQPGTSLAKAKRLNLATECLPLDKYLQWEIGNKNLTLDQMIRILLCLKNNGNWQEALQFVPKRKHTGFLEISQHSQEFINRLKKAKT
UniProt Q96QT4: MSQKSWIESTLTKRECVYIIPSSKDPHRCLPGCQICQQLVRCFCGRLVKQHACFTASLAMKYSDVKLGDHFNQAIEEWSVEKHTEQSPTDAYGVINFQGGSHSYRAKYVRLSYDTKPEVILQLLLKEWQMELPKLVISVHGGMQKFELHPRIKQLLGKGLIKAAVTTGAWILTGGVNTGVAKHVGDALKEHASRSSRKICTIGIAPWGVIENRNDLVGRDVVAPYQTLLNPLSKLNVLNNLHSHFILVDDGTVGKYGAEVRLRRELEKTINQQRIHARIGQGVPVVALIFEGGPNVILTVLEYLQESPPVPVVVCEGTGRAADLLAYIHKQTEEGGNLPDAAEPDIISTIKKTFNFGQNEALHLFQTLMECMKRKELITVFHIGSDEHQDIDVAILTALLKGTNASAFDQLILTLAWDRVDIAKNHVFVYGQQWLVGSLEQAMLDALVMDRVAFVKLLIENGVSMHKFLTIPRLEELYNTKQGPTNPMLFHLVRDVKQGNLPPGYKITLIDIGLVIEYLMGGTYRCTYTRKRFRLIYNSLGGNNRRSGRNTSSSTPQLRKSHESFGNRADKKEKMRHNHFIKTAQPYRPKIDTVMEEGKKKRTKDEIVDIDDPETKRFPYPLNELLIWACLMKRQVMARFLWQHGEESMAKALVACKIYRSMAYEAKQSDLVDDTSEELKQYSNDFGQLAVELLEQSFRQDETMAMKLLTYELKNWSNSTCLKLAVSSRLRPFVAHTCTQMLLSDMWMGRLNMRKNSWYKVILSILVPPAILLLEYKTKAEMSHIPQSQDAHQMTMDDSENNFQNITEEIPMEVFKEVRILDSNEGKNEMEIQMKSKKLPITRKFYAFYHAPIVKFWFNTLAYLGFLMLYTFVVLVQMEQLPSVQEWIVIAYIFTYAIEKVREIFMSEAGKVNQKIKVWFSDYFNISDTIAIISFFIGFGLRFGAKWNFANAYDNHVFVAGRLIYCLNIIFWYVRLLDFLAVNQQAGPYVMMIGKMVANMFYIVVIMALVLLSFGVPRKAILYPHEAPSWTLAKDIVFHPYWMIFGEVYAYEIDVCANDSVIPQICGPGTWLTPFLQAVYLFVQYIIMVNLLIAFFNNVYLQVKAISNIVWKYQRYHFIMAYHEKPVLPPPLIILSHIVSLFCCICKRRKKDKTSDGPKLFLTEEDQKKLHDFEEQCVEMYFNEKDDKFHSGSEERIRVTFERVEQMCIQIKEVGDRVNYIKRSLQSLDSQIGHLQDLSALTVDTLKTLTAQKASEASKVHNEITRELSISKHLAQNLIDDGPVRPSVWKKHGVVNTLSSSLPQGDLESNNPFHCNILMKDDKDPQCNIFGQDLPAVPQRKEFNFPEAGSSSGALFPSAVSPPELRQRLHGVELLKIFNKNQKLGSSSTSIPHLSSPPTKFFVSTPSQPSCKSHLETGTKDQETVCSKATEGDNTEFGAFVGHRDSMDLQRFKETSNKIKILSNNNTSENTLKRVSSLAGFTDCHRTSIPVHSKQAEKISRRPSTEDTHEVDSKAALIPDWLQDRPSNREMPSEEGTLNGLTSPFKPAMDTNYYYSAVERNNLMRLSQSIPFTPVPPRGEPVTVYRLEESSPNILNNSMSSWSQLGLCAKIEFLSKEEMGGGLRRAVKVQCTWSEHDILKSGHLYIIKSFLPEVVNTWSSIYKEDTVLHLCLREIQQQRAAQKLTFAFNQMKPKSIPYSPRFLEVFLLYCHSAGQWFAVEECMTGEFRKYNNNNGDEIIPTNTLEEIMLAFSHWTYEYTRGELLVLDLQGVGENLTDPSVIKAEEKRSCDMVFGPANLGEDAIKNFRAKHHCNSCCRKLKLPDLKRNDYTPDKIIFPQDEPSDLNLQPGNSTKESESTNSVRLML

Compound: CN1C2=C(C3=C1C(=O)N(N=C3)CC4=CC(=CC=C4)N)SC(=C2)S(=O)C
Test: log2 fold change, soluble protein after heating vs DMSO (PISA); higher = thermal stabilisation; K562 cells, 10 uM, 30 min; active = over 0.2 and 3.5 SD of the protein, either way, in both replicates (recomputed)
In short: (§1)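 For each measurement, 10 μM compound was applied for 30 min to K562 cells at 2×10^6 cells/mL. Aliquots were heated for 3 min across 48°C-58°C, pooled, and extracted in PBS with 0.5% NP-40 at 4°C; the supernatant after 21,000xg for 90 min was soluble protein. This was quantified by TMTpro 16plex LC-MS/MS with channel sums equalised, and thermal stability was reported relative to control samples from duplicates, on a log2 fold-change scale.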

Target | log2 fold change
TRIM23 (UniProt P36406) | inactive: -0.116
TRIM28 (UniProt Q13263) | inactive: -0.033
TPM2 (UniProt P07951) | inactive: -0.023
TNPO2 (UniProt O14787) | inactive: 0.016
TOMM5 isoform 2 (UniProt Q8N4H5) | inactive: 0.041
TRMT10A (UniProt Q8TBZ6) | inactive: -0.135
TSC1 (UniProt Q92574) | inactive: -0.144
TRAM1 (UniProt Q15629) | inactive: -0.001
TSEN2 (UniProt Q8NCE0) | inactive: -0.04
TOM1L1 (UniProt O75674) | inactive: -0.053
TNPO1 (UniProt Q92973) | inactive: -0.019
TRIP12 isoform 3 (UniProt Q14669) | inactive: -0.027
TRIM44 (UniProt Q96DX7) | inactive: -0.069
TOR1AIP1 (UniProt Q5JTV8) | inactive: -0.012
TRMT2B (UniProt Q96GJ1) | inactive: 0.019
TRIP10 (UniProt Q15642) | inactive: -0.036
TRAPPC1 (UniProt Q9Y5R8) | inactive: -0.096
TNIK isoform 3 (UniProt Q9UKE5) | inactive: -0.004
TRMT10C (UniProt Q7L0Y3) | inactive: 0.008
TP53BP1 isoform 2 (UniProt Q12888) | inactive: 0.052
TOMM20 (UniProt Q15388) | inactive: -0.033
TRAPPC3 (UniProt O43617) | inactive: -0.051
TNFRSF8 (UniProt P28908) | inactive: -0.051
TRPM7 (UniProt Q96QT4) | inactive: 0.096

Compound: CN1CCC(CNc2ccc3ncc(-c4cccc(OC(F)(F)F)c4)n3n2)CC1
Test: as above
In short: as §1

Target | log2 fold change
TRIM23 (UniProt P36406) | inactive: -0.228
TRIM28 (UniProt Q13263) | inactive: -0.033
TPM2 (UniProt P07951) | inactive: 0.118
TNPO2 (UniProt O14787) | inactive: 0.06
TRMT5 (UniProt Q32P41) | inactive: -0.107
TOMM5 isoform 2 (UniProt Q8N4H5) | inactive: 0.116
TRMT10A (UniProt Q8TBZ6) | inactive: -0.075
TRAM1 (UniProt Q15629) | active: -0.759
TSEN2 (UniProt Q8NCE0) | inactive: 0.034
TOM1L1 (UniProt O75674) | active: 0.385
TNPO1 (UniProt Q92973) | inactive: -0.055
TRIP12 isoform 3 (UniProt Q14669) | inactive: -0.013
TRIM44 (UniProt Q96DX7) | inactive: 0.041
TOR1AIP1 (UniProt Q5JTV8) | inactive: 0.063
TRABD (UniProt Q9H4I3) | inactive: 0.228
TRMT2B (UniProt Q96GJ1) | inactive: -0.009
TRIM4 (UniProt Q9C037) | inactive: 0.294
TRIP10 (UniProt Q15642) | inactive: -0.056
TRAPPC1 (UniProt Q9Y5R8) | inactive: 0.031
TNIK isoform 3 (UniProt Q9UKE5) | inactive: -0.006
TRMT10C (UniProt Q7L0Y3) | inactive: 0.003
TP53BP1 isoform 2 (UniProt Q12888) | inactive: 0.025
TOMM20 (UniProt Q15388) | active: -0.271
TRAPPC3 (UniProt O43617) | inactive: -0.059
TSC2 (UniProt P49815) | inactive: -0.041
TNFRSF8 (UniProt P28908) | inactive: 0.201
TRPM7 (UniProt Q96QT4) | inactive: -0.043
